Measurements from “University of Dundee, Small-Polar-MMV Screening Library” (2021), ChEMBL document CHEMBL3988442.

The chains behind the UniProt entries cited, without tags or fusion partners. Residues count along the entry.
UniProt I6X8D2, whole entry: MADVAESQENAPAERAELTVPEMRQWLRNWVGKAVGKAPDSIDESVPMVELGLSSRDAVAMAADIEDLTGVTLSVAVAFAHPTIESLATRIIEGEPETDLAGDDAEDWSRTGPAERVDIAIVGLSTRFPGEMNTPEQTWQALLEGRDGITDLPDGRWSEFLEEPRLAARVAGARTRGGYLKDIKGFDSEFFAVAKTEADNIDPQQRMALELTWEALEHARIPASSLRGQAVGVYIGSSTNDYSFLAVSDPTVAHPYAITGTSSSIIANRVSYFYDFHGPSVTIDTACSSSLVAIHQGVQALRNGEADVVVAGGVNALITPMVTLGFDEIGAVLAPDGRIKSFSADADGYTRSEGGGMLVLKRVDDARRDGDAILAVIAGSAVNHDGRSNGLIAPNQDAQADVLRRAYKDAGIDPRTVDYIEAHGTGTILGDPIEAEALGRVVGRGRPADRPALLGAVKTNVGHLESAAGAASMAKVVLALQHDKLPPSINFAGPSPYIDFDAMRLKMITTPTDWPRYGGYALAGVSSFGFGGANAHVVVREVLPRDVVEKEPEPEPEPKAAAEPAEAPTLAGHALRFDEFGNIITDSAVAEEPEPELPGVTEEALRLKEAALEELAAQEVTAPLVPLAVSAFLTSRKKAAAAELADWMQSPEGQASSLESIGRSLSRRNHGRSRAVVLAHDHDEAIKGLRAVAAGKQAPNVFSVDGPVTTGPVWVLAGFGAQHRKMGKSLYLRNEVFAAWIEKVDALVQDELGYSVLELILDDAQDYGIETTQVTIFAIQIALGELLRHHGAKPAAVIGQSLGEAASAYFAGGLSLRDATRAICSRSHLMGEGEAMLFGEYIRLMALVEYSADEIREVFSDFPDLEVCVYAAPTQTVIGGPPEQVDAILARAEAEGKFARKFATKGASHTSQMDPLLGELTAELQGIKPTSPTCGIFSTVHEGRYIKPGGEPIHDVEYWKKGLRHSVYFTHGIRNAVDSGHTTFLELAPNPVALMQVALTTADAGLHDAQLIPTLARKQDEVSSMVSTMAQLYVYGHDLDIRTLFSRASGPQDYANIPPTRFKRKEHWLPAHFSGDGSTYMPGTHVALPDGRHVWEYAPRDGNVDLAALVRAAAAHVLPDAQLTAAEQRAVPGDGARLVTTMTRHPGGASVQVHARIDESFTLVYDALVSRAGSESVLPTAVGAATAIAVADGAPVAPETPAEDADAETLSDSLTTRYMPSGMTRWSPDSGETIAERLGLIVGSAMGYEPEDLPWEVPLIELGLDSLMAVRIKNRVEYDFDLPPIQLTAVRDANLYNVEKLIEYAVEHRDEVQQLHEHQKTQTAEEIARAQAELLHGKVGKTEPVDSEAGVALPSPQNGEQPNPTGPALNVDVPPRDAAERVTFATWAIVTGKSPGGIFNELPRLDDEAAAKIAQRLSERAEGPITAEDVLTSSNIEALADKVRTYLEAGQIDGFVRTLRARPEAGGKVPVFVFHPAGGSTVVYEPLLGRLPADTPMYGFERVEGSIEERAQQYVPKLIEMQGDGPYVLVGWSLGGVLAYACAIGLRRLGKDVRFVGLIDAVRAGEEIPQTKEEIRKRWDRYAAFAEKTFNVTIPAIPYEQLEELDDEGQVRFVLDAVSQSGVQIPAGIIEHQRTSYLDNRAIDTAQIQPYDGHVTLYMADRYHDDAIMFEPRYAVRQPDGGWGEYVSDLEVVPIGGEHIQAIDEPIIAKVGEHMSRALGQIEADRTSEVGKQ
UniProt P9WNZ1, whole entry: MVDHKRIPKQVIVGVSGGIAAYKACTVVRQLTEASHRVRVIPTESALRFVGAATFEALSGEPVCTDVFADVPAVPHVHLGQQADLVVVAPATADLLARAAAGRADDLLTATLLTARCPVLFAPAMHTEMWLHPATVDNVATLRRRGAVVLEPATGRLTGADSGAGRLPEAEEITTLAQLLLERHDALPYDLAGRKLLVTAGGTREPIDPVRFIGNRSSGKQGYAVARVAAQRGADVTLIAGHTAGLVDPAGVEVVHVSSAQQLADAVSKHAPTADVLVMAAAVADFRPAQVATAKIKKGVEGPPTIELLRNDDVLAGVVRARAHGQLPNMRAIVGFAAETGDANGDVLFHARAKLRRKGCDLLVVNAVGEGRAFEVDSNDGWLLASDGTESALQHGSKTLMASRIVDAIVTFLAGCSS
UniProt P9WFT3, whole entry: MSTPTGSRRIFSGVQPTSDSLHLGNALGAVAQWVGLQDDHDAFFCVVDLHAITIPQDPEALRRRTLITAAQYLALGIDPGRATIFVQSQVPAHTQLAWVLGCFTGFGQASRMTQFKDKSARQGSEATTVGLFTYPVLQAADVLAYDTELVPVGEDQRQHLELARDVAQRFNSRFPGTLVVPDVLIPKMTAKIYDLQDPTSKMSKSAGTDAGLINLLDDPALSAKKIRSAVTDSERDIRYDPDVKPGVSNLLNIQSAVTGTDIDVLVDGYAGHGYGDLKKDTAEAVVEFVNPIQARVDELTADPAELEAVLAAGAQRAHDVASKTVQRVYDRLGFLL
UniProt A4I591, 1-473: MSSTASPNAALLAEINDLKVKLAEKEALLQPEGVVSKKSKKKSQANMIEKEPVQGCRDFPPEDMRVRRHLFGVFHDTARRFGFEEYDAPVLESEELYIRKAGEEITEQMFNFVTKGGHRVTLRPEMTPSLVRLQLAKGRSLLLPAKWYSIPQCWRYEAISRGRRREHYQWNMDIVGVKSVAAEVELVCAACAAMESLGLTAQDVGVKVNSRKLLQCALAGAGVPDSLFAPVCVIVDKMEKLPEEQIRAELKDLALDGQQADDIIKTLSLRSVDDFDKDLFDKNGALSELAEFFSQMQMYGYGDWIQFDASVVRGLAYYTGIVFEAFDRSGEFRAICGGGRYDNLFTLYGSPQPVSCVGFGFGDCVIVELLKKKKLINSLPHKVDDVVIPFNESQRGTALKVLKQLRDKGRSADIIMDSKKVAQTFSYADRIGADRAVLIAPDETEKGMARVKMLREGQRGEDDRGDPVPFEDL
UniProt Q4DA54, 1-478: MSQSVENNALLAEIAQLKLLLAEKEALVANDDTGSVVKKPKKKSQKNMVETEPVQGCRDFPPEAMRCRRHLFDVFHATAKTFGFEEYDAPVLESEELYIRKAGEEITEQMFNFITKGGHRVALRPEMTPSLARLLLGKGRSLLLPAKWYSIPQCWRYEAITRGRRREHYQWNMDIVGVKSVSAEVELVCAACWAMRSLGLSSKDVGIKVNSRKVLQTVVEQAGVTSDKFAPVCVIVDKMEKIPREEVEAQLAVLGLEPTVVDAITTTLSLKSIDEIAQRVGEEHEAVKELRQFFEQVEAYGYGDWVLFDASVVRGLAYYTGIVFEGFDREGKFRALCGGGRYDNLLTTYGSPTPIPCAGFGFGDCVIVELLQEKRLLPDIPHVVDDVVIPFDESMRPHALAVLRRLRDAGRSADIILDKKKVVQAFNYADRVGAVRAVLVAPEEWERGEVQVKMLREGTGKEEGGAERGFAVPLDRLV

Pks13 thioesterase: 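Polyketide synthase Pks13, Mycobacterium tuberculosis (UniProt I6X8D2). Enzyme assay of the thioesterase domain of polyketide synthase 13; the read-out is not stated. Compounds at 30 µM. The record gives no direction; the compounds picked for IC50 retests had high values, so higher reads as stronger inhibition. Size under these conditions: about 67,000 compounds, about 300 of them at 50% or above in at least one test.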
Toxoplasma: 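Assay of Toxoplasma gondii numbers, read through their beta-galactosidase reporter with a colour substrate. Tested at 10 µM. Higher reads as fewer parasites (inferred from which compounds were picked for retests). About 67,000 compounds were tested under these conditions; 0.38% (about 260) showed 50% or more at least once.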
CoaBC: 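Coenzyme A biosynthesis protein CoaBC, Mycobacterium tuberculosis (UniProt P9WNZ1). Enzyme assay of CoaBC with a phosphate dye (Biomol Green) read at 650 nm. Tested at 30 µM. Direction is inferred from only a few compounds that gave an IC50; most scored high, so higher reads as stronger inhibition. Most strong results did not repeat in a second test. Of about 67,000 compounds tested this way, about 40 (0.06%) reached 50% or more in at least one test.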
MtTrpRS: 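Enzyme assay of tryptophanyl-tRNA synthetase; the read-out is not stated. Target: Tryptophan-tRNA ligase, Mycobacterium tuberculosis (UniProt P9WFT3). Concentration: 10 µM. Higher most likely means stronger inhibition; the record gives no direction and few retests gave an IC50. Of about 65,000 compounds tested this way, about 64 (0.098%) reached 50% or more in at least one test.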
LiHisRS: 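Histidine-tRNA ligase, Leishmania infantum (UniProt A4I591). Enzyme assay of histidyl-tRNA synthetase; the read-out is not stated. Tested at 30 µM. Higher reads as stronger inhibition (inferred: compounds with an IC50 in retests scored well above the rest). The assay is labelled LdHisRS but filed under L. infantum. Of about 69,000 compounds tested this way, about 410 (0.6%) reached 50% or more in at least one test.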
TcHisRS: 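Histidine-tRNA ligase, Trypanosoma cruzi CL Brener (UniProt Q4DA54). Enzyme assay of histidyl-tRNA synthetase; the read-out is not stated. Tested at 30 µM. Direction is inferred from retests: higher values go with stronger inhibition. About 69,000 compounds were tested under these conditions; 0.045% (about 31) showed 50% or more at least once.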

The filed quantity is “Percent Effect” (%). How 0% and 100% were set is not recorded. Most values in the screen are low, and negative values occur. This is an unselected part of the compounds tested. A dash means the value is not listed here; it may have been measured.

- CCN(CC)CCN1CCO[C@H]2[C@@H](OCc3ccncc3)CC[C@@H]21 : Pks13 thioesterase: -36.23%; CoaBC: 3.871%; MtTrpRS: -4.368%; LiHisRS: 30.56%; TcHisRS: 4.478%
- CCn1cnnc1C1CCN(C(=O)c2ccc3ccccc3n2)CC1 : Pks13 thioesterase: -14.28%; Toxoplasma: 7.851%; CoaBC: 0.1203%; MtTrpRS: -0.7337%; LiHisRS: 17.98%; TcHisRS: 9.548%
- Cc1ccccc1OCC(=O)N1CCCC(CNS(C)(=O)=O)C1 (stereo not given) : Pks13 thioesterase: -26.03%; Toxoplasma: -1.017%; CoaBC: 2.046%; MtTrpRS: 7.384%; LiHisRS: 11.01%; TcHisRS: 2.941%
- Cc1nc(CN2CCC3(CCCO3)CC2)c2ccccn12 : Pks13 thioesterase: -9.575%; Toxoplasma: -4.748%; CoaBC: 2.376%; MtTrpRS: 1.546%; LiHisRS: 14.88%; TcHisRS: -2.521%
- [H][C@]12CC[C@](O)(CC1)C(CO)N2Cc1ccc(F)cc1 (stereo not given in full) : Toxoplasma: -46.18%
- c1ccc(C2(NCC3CNc4ccnn4C3)CCC2)cc1 (stereo not given) : Pks13 thioesterase: -8.819%; Toxoplasma: -3.142%; CoaBC: 3.883%; MtTrpRS: 0.8639%; LiHisRS: 11.9%; TcHisRS: 7.921%
- CCc1cn[nH]c1C1CCN(c2cc(C)c3cc(OC)ccc3n2)CC1 : Pks13 thioesterase: -33.44%; Toxoplasma: -8.989%; CoaBC: -31.35%; MtTrpRS: 3.249%; LiHisRS: 12.86%; TcHisRS: 13.83%
- [H][C@]12CC[C@]([H])(CN(C(=O)c3ccc(C)nc3)C1)N(Cc1ccccc1)C2 : Toxoplasma: 0.5455%
- CCOc1ccc(Br)cc1C1CCCCN1.Cl (stereo not given) : Toxoplasma: -20.18%
- CCC(CC)C(=O)Nc1ccc2oc(=O)n(CCN(C)C)c2c1 : Pks13 thioesterase: -15.76%; Toxoplasma: 4.07%; CoaBC: -0.8264%; MtTrpRS: 0.6517%; LiHisRS: 15.18%; TcHisRS: 5%
- CNC(=O)[C@@H]1C[C@@H](NC(=O)CSc2ccccc2)CN1C1CCOCC1 : Pks13 thioesterase: 5.019%; Toxoplasma: 6.453%; CoaBC: 2.314%; MtTrpRS: -1.536%; LiHisRS: -3.125%; TcHisRS: 3.352%
- COc1ccc(C(=O)Nc2c(C(=O)N(C)C)nn(C)c2C)cc1 : Pks13 thioesterase: -14.12%; Toxoplasma: 52.86%; CoaBC: 8.083%; MtTrpRS: 1.943%; LiHisRS: 13.79%; TcHisRS: 3.478%
- COC(C)(C)c1noc(C2(C#N)CCCC2)n1 : Pks13 thioesterase: -8.472%; Toxoplasma: 7.051%; CoaBC: 0.6424%; MtTrpRS: -7.405%; LiHisRS: 8.621%; TcHisRS: 2.618%
- CC(C)n1cnc2c(-c3cccnc3)nc(C3CCNCC3)cc21.Cl.Cl : Toxoplasma: 24.78%
- COc1ccccc1OC1CN(C(=O)Cc2c(C)nc(N)nc2C)C1 : Pks13 thioesterase: -5.887%; Toxoplasma: 9.012%; CoaBC: 1.79%; MtTrpRS: 0.1575%; LiHisRS: 8.197%; TcHisRS: 4.04%
- COc1cccc(CC(=O)N2CCN(c3cccc(C)c3)C(C)C2)c1 (stereo not given) : Pks13 thioesterase: -8.756%; Toxoplasma: -15.82%; CoaBC: 7.968%; MtTrpRS: -5.253%; LiHisRS: 8.219%; TcHisRS: 4.211%

Repeated from the top, 2 entries:

structure,Pks13 thioesterase,Toxoplasma,CoaBC,MtTrpRS,LiHisRS,TcHisRS
CCN(CC)CCN1CCO[C@H]2[C@@H](OCc3ccncc3)CC[C@@H]21,-36.23%,-,3.871%,-4.368%,30.56%,4.478%
CCn1cnnc1C1CCN(C(=O)c2ccc3ccccc3n2)CC1,-14.28%,7.851%,0.1203%,-0.7337%,17.98%,9.548%